The target in the test is T1, CHTOP (human (endogenous in K562)) (UniProt Q9Y3Y2).
T1 sequence: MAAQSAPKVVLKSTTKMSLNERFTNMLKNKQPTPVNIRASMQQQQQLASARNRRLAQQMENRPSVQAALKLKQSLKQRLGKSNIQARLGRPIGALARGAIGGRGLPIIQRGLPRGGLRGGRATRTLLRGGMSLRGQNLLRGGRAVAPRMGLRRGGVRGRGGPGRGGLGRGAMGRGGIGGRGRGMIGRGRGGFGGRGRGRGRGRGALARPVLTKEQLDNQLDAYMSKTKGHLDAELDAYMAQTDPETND
The test can be described thus: cross-linking; K562 nuclei (nuclear extracts) cross-linked with 2 mM Azide-A-DSBSO, 37 °C, 1 h, 20 mM HEPES pH 7.6, 150 mM NaCl, […] MgCl2; FASP digest, DBCO bead enrichment, SEC, LC-MS/MS; MS Annika, shotgun database of 5659 proteins, 1% FDR.

By UniProt entry, the sequences of proteins in these tests, tags left out.
UniProt Q13838: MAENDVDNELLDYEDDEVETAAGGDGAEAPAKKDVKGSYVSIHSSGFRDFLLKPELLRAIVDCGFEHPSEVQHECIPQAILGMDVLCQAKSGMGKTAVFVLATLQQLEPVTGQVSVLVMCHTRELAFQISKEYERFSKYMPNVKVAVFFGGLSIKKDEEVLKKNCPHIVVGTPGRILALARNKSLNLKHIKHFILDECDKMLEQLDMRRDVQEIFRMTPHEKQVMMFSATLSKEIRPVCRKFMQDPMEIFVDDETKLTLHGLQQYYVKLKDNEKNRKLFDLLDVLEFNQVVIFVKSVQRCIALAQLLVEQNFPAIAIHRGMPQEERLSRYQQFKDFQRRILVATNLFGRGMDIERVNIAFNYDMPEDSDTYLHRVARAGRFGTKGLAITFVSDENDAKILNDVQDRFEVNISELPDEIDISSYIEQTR

No constants are given. Whether binding was seen depends on the method and setting. In cells and extracts the contact can be indirect. Some entries that bind do so weakly or less than the wild type.

The text below walks through data of paper PMC12350791.

As for “DDX39B-dTag-GFP (from UniProt Q13838 1-428)”, the binding entry is “binds”.
